Data reported in PMC7426320.
Results are given in words; binding and its absence hold for the method and conditions named. In cells and extracts the contact can be indirect. Some results given as binding are weak or reduced against the parent protein; the word gives no strength.

By UniProt entry, the sequences of proteins in these tests, tags left out.
UniProt P40763: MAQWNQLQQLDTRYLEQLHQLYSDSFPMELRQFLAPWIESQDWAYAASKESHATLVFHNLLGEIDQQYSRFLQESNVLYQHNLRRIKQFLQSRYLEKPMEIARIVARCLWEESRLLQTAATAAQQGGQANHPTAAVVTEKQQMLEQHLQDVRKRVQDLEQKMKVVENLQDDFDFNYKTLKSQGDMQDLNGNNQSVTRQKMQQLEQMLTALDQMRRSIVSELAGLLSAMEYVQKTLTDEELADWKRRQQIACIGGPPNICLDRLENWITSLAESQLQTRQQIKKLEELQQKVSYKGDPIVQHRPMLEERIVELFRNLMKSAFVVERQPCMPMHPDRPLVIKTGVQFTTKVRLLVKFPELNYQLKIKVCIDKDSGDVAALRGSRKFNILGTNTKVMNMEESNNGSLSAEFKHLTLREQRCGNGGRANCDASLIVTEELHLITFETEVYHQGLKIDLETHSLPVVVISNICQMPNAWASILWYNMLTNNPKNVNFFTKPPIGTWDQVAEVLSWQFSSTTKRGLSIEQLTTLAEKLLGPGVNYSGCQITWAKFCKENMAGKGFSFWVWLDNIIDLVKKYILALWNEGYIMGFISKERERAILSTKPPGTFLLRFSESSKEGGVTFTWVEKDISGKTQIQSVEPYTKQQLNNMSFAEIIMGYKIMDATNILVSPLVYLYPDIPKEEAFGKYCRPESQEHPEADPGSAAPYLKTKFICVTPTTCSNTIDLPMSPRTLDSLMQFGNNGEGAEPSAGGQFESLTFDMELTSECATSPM
UniProt Q92793: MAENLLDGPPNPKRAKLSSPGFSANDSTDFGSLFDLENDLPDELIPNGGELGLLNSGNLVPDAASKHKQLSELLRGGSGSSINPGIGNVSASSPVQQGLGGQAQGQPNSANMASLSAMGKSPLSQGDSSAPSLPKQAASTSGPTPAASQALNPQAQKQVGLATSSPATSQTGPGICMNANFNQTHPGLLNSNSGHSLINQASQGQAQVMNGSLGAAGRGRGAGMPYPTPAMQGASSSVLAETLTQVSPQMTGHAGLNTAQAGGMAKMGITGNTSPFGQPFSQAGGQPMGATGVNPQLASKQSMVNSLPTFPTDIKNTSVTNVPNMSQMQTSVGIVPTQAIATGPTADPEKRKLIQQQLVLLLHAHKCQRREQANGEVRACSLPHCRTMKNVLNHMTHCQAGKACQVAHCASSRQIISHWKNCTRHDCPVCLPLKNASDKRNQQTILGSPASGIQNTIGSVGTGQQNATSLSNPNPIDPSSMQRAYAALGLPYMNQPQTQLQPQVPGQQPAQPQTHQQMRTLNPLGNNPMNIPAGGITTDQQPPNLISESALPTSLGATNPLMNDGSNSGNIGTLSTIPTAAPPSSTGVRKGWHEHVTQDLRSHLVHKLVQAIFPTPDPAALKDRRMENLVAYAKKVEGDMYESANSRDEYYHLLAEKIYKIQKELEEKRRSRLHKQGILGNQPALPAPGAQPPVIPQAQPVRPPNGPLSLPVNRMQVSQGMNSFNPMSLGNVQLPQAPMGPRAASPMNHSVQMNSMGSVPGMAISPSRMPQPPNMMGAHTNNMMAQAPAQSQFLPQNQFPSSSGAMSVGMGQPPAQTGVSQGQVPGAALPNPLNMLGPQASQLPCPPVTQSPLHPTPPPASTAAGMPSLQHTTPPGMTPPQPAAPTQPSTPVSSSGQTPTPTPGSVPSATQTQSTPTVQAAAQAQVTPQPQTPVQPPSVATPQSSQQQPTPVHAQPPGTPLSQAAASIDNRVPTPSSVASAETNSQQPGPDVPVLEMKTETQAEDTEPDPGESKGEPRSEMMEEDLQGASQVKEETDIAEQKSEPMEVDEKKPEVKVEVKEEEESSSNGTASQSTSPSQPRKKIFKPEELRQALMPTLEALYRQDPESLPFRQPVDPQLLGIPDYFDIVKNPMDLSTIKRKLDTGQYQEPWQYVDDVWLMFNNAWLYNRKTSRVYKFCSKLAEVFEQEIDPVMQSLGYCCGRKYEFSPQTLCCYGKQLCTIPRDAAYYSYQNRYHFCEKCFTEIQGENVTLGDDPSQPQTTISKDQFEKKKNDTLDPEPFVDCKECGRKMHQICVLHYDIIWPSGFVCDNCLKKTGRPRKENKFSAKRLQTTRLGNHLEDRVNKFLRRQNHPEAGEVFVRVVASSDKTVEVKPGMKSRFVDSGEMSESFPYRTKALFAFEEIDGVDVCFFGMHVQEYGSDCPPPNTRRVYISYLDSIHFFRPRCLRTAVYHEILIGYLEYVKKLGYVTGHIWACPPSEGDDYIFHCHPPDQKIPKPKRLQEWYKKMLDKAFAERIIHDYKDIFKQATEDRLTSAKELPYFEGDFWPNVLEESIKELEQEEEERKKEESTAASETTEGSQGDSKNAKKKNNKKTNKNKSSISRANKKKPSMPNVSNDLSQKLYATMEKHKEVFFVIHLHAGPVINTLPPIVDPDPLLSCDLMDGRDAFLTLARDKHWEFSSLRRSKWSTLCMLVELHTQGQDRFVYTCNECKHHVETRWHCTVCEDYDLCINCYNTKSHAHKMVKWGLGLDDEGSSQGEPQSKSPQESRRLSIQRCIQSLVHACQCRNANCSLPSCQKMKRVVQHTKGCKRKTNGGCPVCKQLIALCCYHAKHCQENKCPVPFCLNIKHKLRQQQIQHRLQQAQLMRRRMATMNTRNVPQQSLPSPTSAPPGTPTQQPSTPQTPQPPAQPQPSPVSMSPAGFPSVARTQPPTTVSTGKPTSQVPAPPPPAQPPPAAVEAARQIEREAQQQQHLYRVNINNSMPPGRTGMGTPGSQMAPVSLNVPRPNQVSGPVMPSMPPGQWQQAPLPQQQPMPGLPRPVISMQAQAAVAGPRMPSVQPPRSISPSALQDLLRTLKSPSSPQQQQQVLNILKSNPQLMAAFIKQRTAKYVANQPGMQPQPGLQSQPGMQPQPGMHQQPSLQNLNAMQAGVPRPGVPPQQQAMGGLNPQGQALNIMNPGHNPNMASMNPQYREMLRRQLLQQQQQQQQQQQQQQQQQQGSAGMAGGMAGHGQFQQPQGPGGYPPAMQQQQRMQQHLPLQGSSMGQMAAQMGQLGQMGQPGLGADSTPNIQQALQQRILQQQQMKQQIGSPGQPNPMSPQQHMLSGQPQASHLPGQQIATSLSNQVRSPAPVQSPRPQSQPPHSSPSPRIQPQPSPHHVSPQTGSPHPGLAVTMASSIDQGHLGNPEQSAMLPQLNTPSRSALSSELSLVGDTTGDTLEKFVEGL

Target: T1, serine/arginine-rich splicing factor 2 (SRSF2) (human (endogenous in Jurkate E6)) (UniProt Q01130)
T1 sequence: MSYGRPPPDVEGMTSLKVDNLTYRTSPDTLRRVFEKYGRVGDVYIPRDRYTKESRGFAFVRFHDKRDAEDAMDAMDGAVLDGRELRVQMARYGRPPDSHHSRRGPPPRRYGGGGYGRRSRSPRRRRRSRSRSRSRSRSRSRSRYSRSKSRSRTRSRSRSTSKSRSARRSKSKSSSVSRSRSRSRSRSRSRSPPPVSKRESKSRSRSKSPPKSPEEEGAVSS
Assay: co-IP; Jurkate E6 cell lysates immuno-precipitated with anti-SRSF2 antibody or IgG (Protein G Dynabeads kit), western blot of the partners

Row | binding | Substance
1 | binds | STAT3 Y705p (signal transducer and activator of transcription 3, phosphorylated at Y705) (from UniProt P40763 1-770)
2 | binds | CBP (from UniProt Q92793 1-2442)
